We go through one substance from patent US20230346949A1 (SANOFI, priority 2019, published 2023).

A short description of this series: peptide synthesis. Particulars: conjugation step.

As for “conjugate of insulin analog 2 with 16-[4-[[5-[2-[2-[2-[2-[2-[2-(2,5-dioxopyrrolidin-1-yl) oxy-2-oxo-ethoxy] ethoxy]ethylamino]-2-oxo-ethoxy]ethoxy]ethylcarbamoyl]pyrimidin-2-yl]sulfamoyl]phenoxy]hexadecanoate [conjugate 1]”, the “final HPLC purity” value (210 nm) was found to be 98.0%. The conjugation yield reads like this: (based on the amount of insulin analog 1 used, calculated from HPLC data, run 1) 50%; (based on the amount of insulin analog 1 used, calculated from HPLC data, run 2) 80%; (based on the amount of insulin analog 1 used, calculated from HPLC data, run 3) 72%; (based on the amount of insulin analog 1 used, calculated from HPLC data, run 4) 84%; (based on the amount of insulin analog 2 used) 14%.
